The assay is described as follows: qHTS Assay for Modulators of Lamin A Splicing. Conditions: HeLa LMNA splicing GFP/RFP minigene ratio, 48 h. The essentials:
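Read-out is the ratio of GFP to DsRed2 object intensity, acquired by 488 nm laser-scanning cytometry on HeLa lamin A-EGFP minigene reporter cells. Compound incubation 48 hrs at 37 °C in Opti-MEM with 2% FBS; DMSO 0.5% final.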

Where [1] appears, read: measured here: GFP splicing reporter channel.
The mark [2] stands for this setting: measured here: RFP viability control channel.

This is one part of the list. Shown are side measurements of this screen, not its main read-out; they come without a call. Most of these compounds were active or inconclusive in the main read-out, so they are no random draw. The note in brackets gives the kind of curve behind each potency; many fits are weak.

In general, AC50 refers to the concentration at which the activity in the assay is half-maximal.

For `c1cncc(CSc2ccc(-c3ccc4c(c3)OCO4)nn2)c1`, the AC50 under setting [1] is 0.00355 µM [rising, full curve, poor fit].

On to `O=S(=O)(Nc1cccc(-c2nc3cccnc3s2)c1)c1ccc2c(c1)CCCC2`, for which the AC50 was 14.1 µM [rising, single point] under setting [1] and 22.4 µM [rising, single point] under setting [2].

As for `Cc1ccc(NC(=O)c2ccccc2Br)cc1S(=O)(=O)N(C)C`, the AC50 under setting [2] was 0.355 µM [rising, full curve, poor fit]. As for `COc1ccc(S(=O)(=O)N2CCOC2CNC(=O)C(=O)NCCc2c[nH]c3ccccc23)cc1C` (stereo not drawn), under setting [2], the AC50 is 14.1 µM [rising, partial curve]. In the case of `O=C(NC(NC(=S)Nc1c(Cl)cccc1Cl)C(Cl)(Cl)Cl)c1cccc([N+](=O)[O-])c1` (stereo not drawn), the AC50 under setting [1] was 0.01 µM [rising, full curve, poor fit] and the AC50 under setting [2] was 12.6 µM [rising, partial curve, poor fit]. Turning to `Cc1ccc(N/C(SCc2ccccc2C)=C(/C#N)C(=O)NCc2ccco2)cc1C`, the AC50 under setting [1] is 8.91 µM [rising, partial curve] and the AC50 under setting [2] was 12.6 µM [rising, partial curve]. Turning to `CC(C)[C@H](NC(=O)c1ccccc1)C(=O)OCC(=O)c1ccccc1F`, under setting [2], the AC50 was 31.6 µM [falling, partial curve, poor fit].

For the compound `C[C@H]1Cc2c(COc3ccccc3)nc3c(c2CO1)CN(C(=O)Cc1cccs1)CC3`, the AC50 was 0.0562 µM [falling, full curve, poor fit] under setting [1] and 0.00355 µM [falling, full curve, poor fit] under setting [2]. Regarding `CCOc1ccccc1NC(=O)COC(=O)c1cc(C(=O)OC)cc([N+](=O)[O-])c1`, under setting [1], the AC50 is 0.708 µM [falling, single point]. Regarding `CCc1c(-c2ccccc2)nc2ccccc2c1C(=O)NCCc1ccccc1`, the AC50 is, setting by setting: under setting [1], 14.1 µM [falling, partial curve, poor fit]; under setting [2], 0.891 µM [falling, partial curve, poor fit]. Take `Cc1cnc(C(=O)OCC(=O)NC2CCCCC2)cn1`: the AC50 under setting [2] is 14.1 µM [rising, single point].

With `O=C(Nc1ccc(Cn2nnc3ccccc32)cc1)c1ccco1`, the AC50 was 8.91 µM [rising, partial curve] under setting [1] and 7.94 µM [rising, partial curve, poor fit] under setting [2]. With `COc1ccc2c(c1)CC(NC(=O)Nc1c(C)cc(C)cc1C)CO2` (stereo not drawn), under setting [1], the AC50 was 5.62 µM [rising, single point]. `Clc1ccc(-c2cc(C3CCNCC3)[nH]n2)c(Cl)c1`: the AC50 under setting [1] was 35.5 µM [falling, single point]. For the compound `COC(=O)C1=C(N)N(c2ccccc2F)C2=C(C(=O)CC(C)(C)C2)C1c1ccc(OC)c(OC)c1` (stereo not drawn), the AC50 was 0.1 µM [rising, full curve, poor fit] under setting [1] and 0.2 µM [rising, full curve, poor fit] under setting [2]. `CCc1ccc(NS(=O)(=O)c2ccc3[nH]cc(C(=O)NCC4CCCO4)c(=O)c3c2)cc1` (stereo not drawn): the AC50 under setting [1] was 6.31 µM [rising, partial curve, poor fit]. As to `CCOc1cc(/C=C/c2cc(C(=O)O)c3ccccc3n2)ccc1OC`, the AC50 under setting [2] was 31.6 µM [rising, single point]. On the same count and under the same terms, for `O=S(=O)(NC1CCCCC1Nc1ccc(Cl)cc1)c1ccccc1` (stereo not drawn) the value was 25.1 µM [rising, single point]. On to `NS(=O)(=O)c1ccc(NC(=O)c2cccc(Cl)c2)cc1`, for which the AC50 under setting [1] is 0.355 µM [rising, partial curve]. For `CN(C)CCn1nnnc1SCC1=C(C(=O)O)N2C(=O)[C@@H](NC(=O)Cc3csc(N)n3)[C@@H]2SC1`, the AC50 under setting [2] was 14.1 µM [falling, single point]. `CC(=O)c1ccc(S(=O)(=O)Nc2cccc(-c3ccc4nncn4n3)c2)cc1`: the AC50 under setting [2] was 35.5 µM [rising, single point]. As for `Cc1c(O)ccc2c3c(c(=O)oc12)CCC(C)C3` (stereo not drawn), under setting [2], the AC50 is 15.8 µM [rising, single point]. `O=C(NCc1cccc(Cl)c1)c1cc(COc2ccc3ncccc3c2)on1`: the AC50 is, setting by setting: under setting [1], 3.98 µM [falling, partial curve, poor fit]; under setting [2], 1.58 µM [falling, partial curve, poor fit]. Consider `O=C(O)CCNS(=O)(=O)c1ccc2c(c1)Cc1ccccc1-2`, for which the AC50 under setting [2] was 3.55 µM [rising, full curve, poor fit]. `O=[N+]([O-])c1ccc(Oc2ccc(F)cc2Br)c2ccncc12`: the AC50 under setting [1] was 35.5 µM [rising, single point]. For `O=C(C1CCCN(S(=O)(=O)c2cccc3nsnc23)C1)N1CCc2ccccc21` (stereo not drawn), under setting [1], the AC50 was 6.31 µM [rising, single point]. In the case of `CCCOc1ccc(N2C(=O)CC(N(Cc3ccco3)C(C)=O)C2=O)cc1` (stereo not drawn), the AC50 runs as follows: under setting [1], 10 µM [rising, partial curve, poor fit]; under setting [2], 35.5 µM [rising, partial curve, poor fit].

Regarding `COc1cccc(Cn2c(=O)c(-c3cc(F)cc(F)c3)nc3cncnc32)c1`, the AC50 is, setting by setting: under setting [1], 1.41 µM [falling, partial curve, poor fit]; under setting [2], 1.78 µM [falling, partial curve, poor fit]. Turning to `Cc1cc(S(=O)(=O)Nc2ccc(-c3ccc(N4CCCCC4)nn3)cc2)c(C)cc1Cl`, the AC50 under setting [1] is 8.91 µM [falling, partial curve, poor fit]. As to `O=C(/C=C/c1ccc(Cl)cc1)Nc1ccc(CN2CCOCC2)cc1`, the AC50 is 7.08 µM [rising, partial curve] under setting [1] and 8.91 µM [rising, partial curve] under setting [2]. With `CC(C)c1cnc2c(c1SCC(=O)Nc1ccccc1C(F)(F)F)c(=O)n(C)c(=O)n2C`, the AC50 was 1.41 µM [rising, partial curve] under setting [1] and 2.82 µM [rising, partial curve] under setting [2]. In the case of `CCOc1ccc(NC(=O)CSc2nnc(-c3ccccc3Cl)n2Cc2ccco2)cc1`, the AC50 under setting [2] was 10 µM [rising, partial curve, poor fit]. For the compound `O=C1C(Nc2ccc(O)cc2)=C/C(=N/S(=O)(=O)c2cccs2)c2ccccc21`, the AC50 runs as follows: under setting [1], 5.01 µM [falling, full curve]; under setting [2], 5.62 µM [falling, full curve]. For `CNc1cc([N+](=O)[O-])ccc1N/C=C/C(=O)c1ccc2c(c1)OCO2`, the AC50 under setting [2] is 7.08 µM [rising, partial curve, poor fit].

With `Cn1c(=O)cc(N2CCCCC2)[nH]c1=O`, under setting [2], the AC50 is 0.1 µM [rising, full curve, poor fit]. On to `Cc1ccc(CN2CCSc3ccc(C(=O)N4CCN(c5ncccn5)CC4)cc32)cc1`, for which the AC50 was 11.2 µM [rising, partial curve] under setting [1] and 20 µM [rising, single point] under setting [2]. On to `CC(C)(C)c1nnc(NC(=S)Nc2ccccc2)s1`, for which the AC50 is, setting by setting: under setting [1], 0.00708 µM [falling, full curve, poor fit]; under setting [2], 17.8 µM [falling, partial curve, poor fit].

As for `COc1ccc(S(=O)(=O)N2CC(C(=O)O)Oc3ccc(CC(=O)O)cc32)cc1` (stereo not drawn), the AC50 is 0.631 µM [falling, full curve] under setting [1] and 0.891 µM [falling, full curve] under setting [2]. With `O=C(Cc1c(O)c2ccccc2[nH]c1=O)NCc1ccccc1F`, the AC50 under setting [2] was 5.62 µM [rising, single point].

As for `C/C(=N\NC(=O)c1ccc(CN(C)S(=O)(=O)c2ccc(C)cc2)cc1)c1ccc(OC(F)F)cc1`, the AC50 under setting [1] is 20 µM [rising, single point] and the AC50 under setting [2] is 22.4 µM [rising, partial curve, poor fit]. Take `COc1ccc2nc(Nc3nc4cc5c(cc4s3)OCO5)sc2c1`: the AC50 under setting [2] was 0.0251 µM [rising, full curve, poor fit]. On to `COc1ccc(OC)c(NC(=O)C2CCC(CNc3c(N4CCC(C)CC4)c(=O)c3=O)CC2)c1` (stereo not drawn), for which the AC50 under setting [1] was 11.2 µM [falling, partial curve]. In the case of `COc1ccccc1NS(=O)(=O)c1ccc(Cl)c(NC(=S)NC(=O)C2CCCC2)c1`, the AC50 under setting [1] is 11.2 µM [rising, partial curve, poor fit] and the AC50 under setting [2] is 35.5 µM [rising, single point]. Consider `O=C(/C=C/Nc1ccc(Nc2ccccc2)cc1)c1cccs1`, for which the half-maximal activity concentration (AC50) is 0.0224 µM [rising, full curve, poor fit] under setting [1] and 8.91 µM [rising, partial curve, poor fit] under setting [2]. For `Cc1ccc(C(=O)C(C)Oc2cccc(NC(=O)c3ccco3)c2)cc1` (stereo not drawn), the AC50 under setting [2] is 35.5 µM [rising, single point].

Consider `O=C(Nc1nnc(CSCc2ccccc2F)s1)c1cccc([N+](=O)[O-])c1`, for which the AC50 under setting [2] is 25.1 µM [rising, single point].

For the compound `COc1ccc(CN(C(=O)/C=C/C(=O)c2ccc(OC)cc2O)C(C(=O)NC2CCCCC2)c2ccncc2)cc1` (stereo not drawn), the AC50 runs as follows: under setting [1], 11.2 µM [rising, single point]; under setting [2], 15.8 µM [rising, partial curve]. As for `COc1ccccc1C(=O)NCCn1cc(SCC(=O)Nc2cc(C)on2)c2ccccc21`, under setting [2], the AC50 is 17.8 µM [rising, single point]. `Nc1cccc2nc3ccccc3cc12`: the AC50 was 7.94 µM [falling, partial curve, poor fit] under setting [1] and 11.2 µM [falling, partial curve, poor fit] under setting [2]. As to `O=C(c1cccc(Br)c1)N1CCN(Cc2cc(=O)n3nc(-c4ccccc4)sc3n2)CC1`, the AC50 under setting [2] was 31.6 µM [rising, single point]. In the case of `CCc1nc2ccccc2c(C(=O)OCC(=O)Nc2cccc(S(=O)(=O)N3CCOCC3)c2)c1C`, the AC50 runs as follows: under setting [1], 15.8 µM [falling, single point]; under setting [2], 20 µM [falling, partial curve].

(Values after PubChem BioAssay AID1487 (National Center for Advancing Translational Sciences (NCATS), 2009).)
